Library screen at single concentrations

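Whole-cell growth test on Mycobacterium tuberculosis, read after 4 days in a medium based on cholesterol and the lipid DPPC; the read-out is not stated. Compounds at 50 µM. The record gives no direction; compounds that gave an IC50 in retests scored well above the rest, so higher reads as more growth inhibition. About 69,000 compounds were tested under these conditions; 0.54% (about 370) showed 50% or more at least once.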

Results are given as percent effect.
The controls that fix the scale are not given in the record; negative values are as filed.
Compounds were drawn at random from those tested, without regard to their results.
Two or more numbers in one place are separate tests of the same structure; such repeats can differ widely.

* O=C(C1CCCC1)N1CCC2(CC1)OCCO2 | -5.191%
* Cc1nn(C)c(C)c1NC(=O)CN1CCOC(CN(C)C)C1 (stereo not shown) | -2.643%
* Cl.O=C1C(NCc2ccc3c(c2)CCO3)CCN1Cc1ccccc1 (stereo not shown) | -6.34%
* CCN(C(=O)c1cccc2c1OCO2)c1ccccc1 | -3.747% & -15.24%
* CCC(NC(=O)CCCNC(=O)OC)c1cc(F)ccc1F (stereo not shown) | -23.16%
* O=C([C@H]1CCCO1)N1CCC2(CC1)C(=O)N(CC1CC1)c1ccccc12 | 0.9923%
* COc1ccc(-c2nc(CNC3CCc4nc(C)nn4C3)no2)cc1 (stereo not shown) | -9.444%
* COCCC(C)NCc1ccccc1-n1ccnc1 (stereo not shown) | -12.19%
* N#Cc1c(N2CCOCC2)nsc1-c1cccnc1 | 5.83%
* COc1ccc(CNC(Cc2ccsc2)c2ccc(C)cn2)c(OC)c1 (stereo not shown) | 16.48%
* CC(=O)NC(Cc1c[nH]c2cc(F)ccc12)C(=O)Nc1nonc1C (stereo not shown) | -18.06%
* O=C(O)C(F)(F)F.[H][C@@]12CCN(c3cccc(F)c3)C[C@@]1([H])O[C@@H](C(=O)NCc1ccco1)C2 | -14.22%
* Cc1ccc(CN2CCCN(Cc3cscn3)CC2)cc1 | 13.4%
* O=C(Cn1cc(-c2ccccc2)cn1)N1CCNC1=O | 9.58%
* C[S+]([O-])c1nncn1CC(=O)c1ccc(OC(F)F)cc1 (stereo not shown) | 15.89%
* NC(=O)C1CCN(C(=O)c2cccc(OCc3cscn3)c2)CC1 | -7.772%
* O=C(Nc1ccccc1)C1CCN(C(=O)COc2ccccc2F)CC1 | -47.54%
* CC(C)CCN(C)Cn1ncc2cn(-c3ccccc3)nc2c1=O | 5.208%
* CC(NC1CCN(CC(=O)N(C)C)CC1)c1cnn(C(C)C)c1 (stereo not shown) | -0.7446%
* CCCc1noc(CCC(=O)N2CCCC(c3ccn[nH]3)C2)n1 (stereo not shown) | 3.772%
* COc1ccccc1CN(CC1CCCO1)C(=O)c1scnc1C (stereo not shown) | -2.895%
* c1csc(-c2noc(CN3CCCCC3Cn3cccn3)n2)c1 (stereo not shown) | -27.46%
* COc1cccc(N2CC3(CCN(c4ccncn4)C3)CC2=O)c1 (stereo not shown) | -2.659% & -13.3%
* CN(CCN1CCOCC1)C(=O)C1(c2ccc(F)cc2F)CCC1 | -1.744%
* CCN(C)Cc1cccc(CNC(=O)CSCc2ccccn2)c1 | -6.609%
* Cc1cnc2cc(C3CCN(C(=O)c4ccncc4)CC3)[nH]c2n1 | -18.7%
* CCC1CCCCN1CCNC(=O)N1CCN(Cc2ccon2)CC1 (stereo not shown) | -3.987% & 17.34%
* CCOc1cc(C(=O)N2CCCC(c3cc(C(N)=O)[nH]n3)C2)ccn1 (stereo not shown) | 4.083%
* Cn1nccc1C(=O)N1CCOC(Cc2ccc(Cl)cc2)C1 (stereo not shown) | -1.555%
* CC(O)CN(CC(=O)NC1CCCCC1)c1ccccc1 (stereo not shown) | 3.761%
* Cc1ccc(-c2nc(CN(Cc3ccco3)C3CCS(=O)(=O)C3)cs2)o1 (stereo not shown) | 10.25%
* CN(C)c1cc(C(=O)N2CCN(c3cnccn3)CC2)ccn1 | -14.86%
* Cc1cccc2c1nc1n2[C@@H](CNC(=O)CCC(=O)O)COC1 | -18.24%
* Cc1ccc(NS(=O)(=O)c2cccc(C#N)c2)c(CN(C)C)c1 | -9.256%
* O=C(Nc1nnn[nH]1)c1ccc(-n2cccc2)c(F)c1 | 5.2%
* CC(C)Nc1ncc(CN2C[C@@H](CN3CCC(O)CC3)[C@@H](CO)C2)cn1 | -4.738%
* CCc1oc2ccc(NS(=O)(=O)CC)cc2c1C(=O)OC | -10.62%
* CC(c1ccc(F)c(F)c1)N1CCN(Cc2nccn2C)CC1 (stereo not shown) | -58.24%
* NC(=O)CN1CCCC(CCCc2ccccn2)(C(N)=O)C1 (stereo not shown) | 4.409%
* COc1ccc(C(O)CNC(=O)NCc2c(C)cc(C)[nH]c2=O)cc1 (stereo not shown) | -5.05%
* CSc1ccc(CCN2CCN([C@H]3CCCC[C@@H]3O)CC2)cc1 | 5.121%
* Cc1cc(C)n(CC2CCCN2C(=O)c2ccc(N(C)C)nn2)n1 (stereo not shown) | 2.681%
* c1ccc(CN2CCC3(COCc4cnc(NCC5CC5)nc43)C2)cc1 (stereo not shown) | 17.38%
* [H][C@@]12OCCN(C(=O)CC3=CCCCC3)[C@@]1([H])CC[C@H]2OCC | 1.027%
* Cc1cc(C(N)=O)c2c(Br)cccc2n1 | 7.491%

The last 5 entries again:

SMILES	Percent Effect
CSc1ccc(CCN2CCN([C@H]3CCCC[C@@H]3O)CC2)cc1	5.121
Cc1cc(C)n(CC2CCCN2C(=O)c2ccc(N(C)C)nn2)n1 (stereo not shown)	2.681
c1ccc(CN2CCC3(COCc4cnc(NCC5CC5)nc43)C2)cc1 (stereo not shown)	17.38
[H][C@@]12OCCN(C(=O)CC3=CCCCC3)[C@@]1([H])CC[C@H]2OCC	1.027
Cc1cc(C(N)=O)c2c(Br)cccc2n1	7.491

Measurements from “University of Dundee, Small-Polar-MMV Screening Library” (2021), ChEMBL document CHEMBL3988442.